## Drug screen on melanoma cell lines: cell count

Values as published with doi:10.1371/journal.pone.0140310, rounded.

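Human melanoma cell lines in 1,536-well plates were treated with two drugs together for 72 h, then fixed, stained and imaged. Values are the number of DAPI-stained nuclei as a percentage of the DMSO control: 100 is no effect, lower means fewer cells. Every drug was used at one fixed concentration, the lower of two screened (a fifth of the higher). The file gives one value for each pair and line, without errors, so small differences may be noise.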 Only some of the drugs and lines screened are listed, without regard to their results. A dash means that no value is listed here.

Drugs:
NVP-BEZ235: Cn1c(=O)n(-c2ccc(C(C)(C)C#N)cc2)c2c3cc(-c4cnc5ccccc5c4)ccc3ncc21 at 0.004 µM
AZD7762: NC(=O)Nc1cc(-c2cccc(F)c2)sc1C(=O)N[C@H]1CCCNC1 at 0.02 µM
perifosine: CCCCCCCCCCCCCCCCCCOP(=O)([O-])OC1CC[N+](C)(C)CC1 at 0.4 µM
cisplatin: N.N.[Cl][Pt][Cl] at 1.6 µM
GW9662: O=C(Nc1ccccc1)c1cc([N+](=O)[O-])ccc1Cl at 2 µM
KU-0063794: COc1ccc(-c2ccc3c(N4CCOCC4)nc(N4C[C@@H](C)O[C@@H](C)C4)nc3n2)cc1CO at 0.02 µM
embelin: CCCCCCCCCCCC1=C(O)C(=O)C=C(O)C1=O at 1.2 µM
U73122: COc1ccc2c(c1)CCC1C2CCC2(C)C(NCCCCCCN3C(=O)C=CC3=O)CCC12 (stereo not drawn) at 0.4 µM
lenalidomide: Nc1cccc2c1CN(C1CCC(=O)NC1=O)C2=O (stereo not drawn) at 1 µM
PF-04217903: OCCn1cc(-c2cnc3nnn(Cc4ccc5ncccc5c4)c3n2)cn1 at 1 µM
GW441756: Cn1cc(/C=C2\C(=O)Nc3cccnc32)c2ccccc21 at 0.4 µM
TCS401: O=C(O)C(=O)Nc1sc2c(c1C(=O)O)CCNC2 at 1.67 µM
CHIR-265: Cn1c(Nc2ccc(C(F)(F)F)cc2)nc2cc(Oc3ccnc(-c4ncc(C(F)(F)F)[nH]4)c3)ccc21 at 0.08 µM
dorsomorphin: c1cc(-c2cnn3cc(-c4ccc(OCCN5CCCCC5)cc4)cnc23)ccn1 at 0.4 µM
GSK0660: COC(=O)c1sccc1S(=O)(=O)Nc1ccc(Nc2ccccc2)cc1OC at 1 µM
pazopanib: Cc1ccc(Nc2nccc(N(C)c3ccc4c(C)n(C)nc4c3)n2)cc1S(N)(=O)=O at 0.4 µM
YM155: COCC[n+]1c2c(n(Cc3cnccn3)c1C)C(=O)c1ccccc1C2=O at 0.0004 µM
SU6656: CN(C)S(=O)(=O)c1ccc2c(c1)/C(=C/c1cc3c([nH]1)CCCC3)C(=O)N2 at 0.4 µM
erlotinib: C#Cc1cccc(Nc2ncnc3cc(OCCOC)c(OCCOC)cc23)c1 at 0.8 µM
KU-55933: O=c1cc(-c2cccc3c2Sc2ccccc2S3)oc(N2CCOCC2)c1 at 1 µM

Pair	G-361	COLO 829	IPC-298	COLO 792	C32	COLO 800	MEL-HO	IST-MEL1	LB2518-MEL	LOX IMVI
YM155 + embelin	102	124	90.8	89.3	-	108	79.9	93.6	97.5	103
U73122 + SU6656	98.8	105	98.1	95.3	-	90.8	96.8	99.7	107	135
GW441756 + erlotinib	93.5	102	102	82.9	-	66.3	90.6	95.2	104	89.5
CHIR-265 + KU-0063794	64.5	93.6	60.9	46.6	-	49.1	66.5	91.2	54.5	62.2
dorsomorphin + YM155	86.0	101	84.5	94.3	-	61.7	105	65.5	74.9	80.9
pazopanib + YM155	87.9	98.5	70.7	119	-	66.9	101	87.1	67.4	128
KU-55933 + lenalidomide	95.1	126	106	100	-	81.7	134	108	130	138
TCS401 + PF-04217903	113	96.9	96.4	96.4	-	75.2	93.4	102	95.9	121
erlotinib + dorsomorphin	96.5	97.0	97.0	69.2	-	79.8	93.4	99.8	90.6	138
erlotinib + GSK0660	99.0	85.4	92.8	92.3	-	93.1	102	99.7	111	108
YM155 + TCS401	90.5	99.6	92.0	97.2	-	71.4	87.7	88.5	95.1	59.0
PF-04217903 + GW441756	110	129	96.3	101	-	105	97.5	104	93.6	124
SU6656 + GW9662	82.6	80.0	93.8	88.2	-	89.5	114	101	79.8	118
AZD7762 + KU-0063794	104	105	96.7	101	-	73.8	90.0	105	116	65.8
U73122 + PF-04217903	104	110	106	99.1	-	111	95.7	98.0	105	277
KU-55933 + YM155	84.0	95.5	99.7	91.9	-	55.7	92.5	90.4	90.2	43.3
TCS401 + AZD7762	100	93.0	107	85.5	-	88.0	105	113	116	74.7
perifosine + embelin	104	99.8	105	99.6	-	93.8	92.0	101	95.9	83.2
perifosine + NVP-BEZ235	96.2	115	104	94.5	114	83.4	99.7	94.7	-	74.0
perifosine + cisplatin	73.0	96.1	95.4	88.9	-	113	98.1	99.6	106	109
embelin + PF-04217903	106	106	107	96.4	-	83.2	93.6	93.9	111	209

The last 2 entries again:

| Pair | G-361 | COLO 829 | IPC-298 | COLO 792 | C32 | COLO 800 | MEL-HO | IST-MEL1 | LB2518-MEL | LOX IMVI |
|---|---|---|---|---|---|---|---|---|---|---|
| perifosine + cisplatin | 73.0 | 96.1 | 95.4 | 88.9 | - | 113 | 98.1 | 99.6 | 106 | 109 |
| embelin + PF-04217903 | 106 | 106 | 107 | 96.4 | - | 83.2 | 93.6 | 93.9 | 111 | 209 |